Laboratory results published in PubChem BioAssay AID248 (DTP/NCI, 2004).
The list is a part of this screen's results and no random one: it gathers tests that were run many times, whatever their T/C, doses with no T/C, and many T/C values between a quarter and a half above the control. Further doses and runs are listed elsewhere. T/C: endpoint of the treated group in % of that of the vehicle group. Some doses have a count of surviving animals in place of a T/C: the source files T/C as zero there, which appears to mark a toxic dose or a test without result, not a measured value. Some survivor counts are full or nearly so, which does not show that the dose was tolerated: survival well below the control is almost never listed, so the zero probably covers shortened survival too. Survivors were counted at the toxicity check, usually on the fifth day, unless a day is given; later deaths do not show. Schedules are NCI's codes, read here as Q, the interval in days (D) or hours (H), X, the number of doses. Some schedule codes hold Z or #, which are not explained here. Where survival is the endpoint, this PubChem deposit counts one and a half times the control or more as active, and values a quarter to a half above the control carry no call in these data; other NCI protocols may use other cut-offs. Some T/C values carry the count of animals alive at the toxicity check (mostly the fifth day); where none is given, no animal had died by that day.

Tested on: L1210 leukemia ip in BDF1 mice, survival T/C
Assay: NCI In Vivo Anticancer Drug Screen. Data for tumor model L1210 Leukemia (intraperitoneal) in B6D2F1 (BDF1) mice
Settings: T/C endpoint: mean survival time, higher T/C = longer survival
[1] = dose: 100.0 mg/kg/injection, schedule: Q01DX009 (ip), vehicle: Klucel (hydroxypropylcellulose) (HPC)
[2] = dose: 200.0 mg/kg/injection, schedule: Q01DX009 (ip), vehicle: Klucel (hydroxypropylcellulose) (HPC)
[3] = dose: 100.0 mg/kg/injection, schedule: Q04DX003 (ip), vehicle: saline with Tween-80
[4] = dose: 200.0 mg/kg/injection, schedule: Q04DX003 (ip), vehicle: saline with Tween-80
[5] = dose: 400.0 mg/kg/injection, schedule: Q04DX003 (ip), vehicle: saline with Tween-80
[6] = dose: 200.0 mg/kg/injection, schedule: Q04DX002 (ip), vehicle: Klucel (hydroxypropylcellulose) (HPC)

Structure (SMILES): CCOC(=O)C[P+](c1cccc(OC)c1)(c1cccc(OC)c1)c1cccc(OC)c1
- survivor count (dose: 60.0 mg/kg/injection, schedule: Q01DX001 (ip), vehicle: carboxymethylcellulose (CMC)): 1 of 6

Structure (SMILES): CS(=O)(=O)OCOS(C)(=O)=O
- T/C (dose: 25.0 mg/kg/injection, schedule: Q01DX009 (ip), vehicle: saline): 128 % of control [5 of 6 alive]
- survivor count [1]: 4 of 6
- survivor count (dose: 100.0 mg/kg/injection, schedule: Q01DX009 (ip), vehicle: saline): 6 of 6
- survivor count (dose: 100.0 mg/kg/injection, schedule: Q04DX002 (ip), vehicle: saline): 3 of 3
- survivor count [2]: 3 of 6
- survivor count (dose: 200.0 mg/kg/injection, schedule: Q04DX002 (ip), vehicle: saline): 1 of 3

Structure (SMILES): COc1ccc(OC)c2c1C(=O)CC2C (stereo unspecified)
- survivor count (dose: 400.0 mg/kg/injection, schedule: Q01DX009 (ip), vehicle: saline): 3 of 6

Structure (SMILES): CC(C)(C)C1CCC(N=C(N)CS)CC1 (stereo unspecified)
- survivor count (dose: 12.5 mg/kg/injection, schedule: Q01DX001 (ip), vehicle: carboxymethylcellulose (CMC)): 1 of 6
- survivor count (dose: 25.0 mg/kg/injection, schedule: Q01DX001 (ip), vehicle: carboxymethylcellulose (CMC)): 0 of 6
- survivor count (dose: 50.0 mg/kg/injection, schedule: Q01DX001 (ip), vehicle: carboxymethylcellulose (CMC)): 0 of 6
- survivor count (dose: 100.0 mg/kg/injection, schedule: Q01DX001 (ip), vehicle: carboxymethylcellulose (CMC)): 0 of 6
- survivor count (dose: 200.0 mg/kg/injection, schedule: Q01DX001 (ip), vehicle: carboxymethylcellulose (CMC)): 0 of 6
- survivor count (dose: 400.0 mg/kg/injection, schedule: Q01DX001 (ip), vehicle: carboxymethylcellulose (CMC)): 0 of 6

Structure (SMILES): COc1ccc(NC(=O)CC#N)cc1
- survivor count (dose: 400.0 mg/kg/injection, schedule: Q01DX001 (ip), vehicle: Klucel (hydroxypropylcellulose) (HPC)): 0 of 6

Structure (SMILES): O=[N+]([O-])c1cc(Cl)ccc1S(=O)(=O)CC(Cl)c1ccccc1 (stereo unspecified)
- survivor count (dose: 100.0 mg/kg/injection, schedule: Q01DX009 (ip), vehicle: acetone): 6 of 6

Structure (SMILES): OCCC(c1ccccc1)(c1ccccc1)c1ccccc1
- survivor count (dose: 50.0 mg/kg/injection, schedule: Q04DX003 (ip), vehicle: saline with Tween-80): 6 of 6
- survivor count [3]: 3 of 6
- survivor count [4]: 3 of 6
- survivor count [5]: 0 of 6

Structure (SMILES): O=C(O)CNC(=O)C(CSCc1ccccc1)NC(=O)OCc1ccccc1 (stereo unspecified)
- survivor count (dose: 200.0 mg/kg/injection, schedule: Q04DX003 (ip), vehicle: Klucel (hydroxypropylcellulose) (HPC)): 6 of 6

Structure (SMILES): O=NN(CCCl)C(=O)Nc1ccc2oc(=O)c3ccccc3c2c1
- T/C (dose: 10.0 mg/kg/injection, schedule: Q01DX001 (ip), vehicle: carboxymethylcellulose (CMC)): 126 % of control
- T/C (dose: 20.0 mg/kg/injection, schedule: Q01DX001 (ip), vehicle: carboxymethylcellulose (CMC), evaluated on day 30): 148 % of control
- T/C (dose: 20.0 mg/kg/injection, schedule: Q01DX001 (ip), vehicle: carboxymethylcellulose (CMC), run until all animals had died): 141 % of control
- T/C (dose: 35.0 mg/kg/injection, schedule: Q01DX001 (ip), vehicle: carboxymethylcellulose (CMC)): 131 % of control
- T/C (dose: 40.0 mg/kg/injection, schedule: Q01DX001 (ip), vehicle: carboxymethylcellulose (CMC)): 131 % of control
- T/C (dose: 53.0 mg/kg/injection, schedule: Q01DX001 (ip), vehicle: carboxymethylcellulose (CMC)): 140 % of control
- T/C (dose: 75.0 mg/kg/injection, schedule: Q01DX001 (ip), vehicle: carboxymethylcellulose (CMC)): 136 % of control
- T/C (dose: 80.0 mg/kg/injection, schedule: Q01DX001 (ip), vehicle: carboxymethylcellulose (CMC)): 138 % of control
- T/C (dose: 120.0 mg/kg/injection, schedule: Q01DX001 (ip), vehicle: carboxymethylcellulose (CMC)): 135 % of control
- T/C (dose: 177.0 mg/kg/injection, schedule: Q01DX001 (ip), vehicle: carboxymethylcellulose (CMC), evaluated on day 30): 128 % of control
- T/C (dose: 177.0 mg/kg/injection, schedule: Q01DX001 (ip), vehicle: carboxymethylcellulose (CMC), run until all animals had died): 144 % of control
- T/C (dose: 266.0 mg/kg/injection, schedule: Q01DX001 (ip), vehicle: carboxymethylcellulose (CMC), evaluated on day 30): 134 % of control
- T/C (dose: 266.0 mg/kg/injection, schedule: Q01DX001 (ip), vehicle: carboxymethylcellulose (CMC), run until all animals had died): 148 % of control
- T/C (dose: 400.0 mg/kg/injection, schedule: Q01DX001 (ip), vehicle: carboxymethylcellulose (CMC), evaluated on day 30): 126 % of control
- T/C (dose: 400.0 mg/kg/injection, schedule: Q01DX001 (ip), vehicle: carboxymethylcellulose (CMC), run until all animals had died): 143 % of control
- T/C (dose: 600.0 mg/kg/injection, schedule: Q01DX001 (ip), vehicle: carboxymethylcellulose (CMC)): 148 % of control

Structure (SMILES): NCc1cc(=O)[nH]c(=O)[nH]1
- survivor count (dose: 200.0 mg/kg/injection, schedule: Q04DX003 (ip), vehicle: saline): 2 of 4

Structure (SMILES): BrC(Br)c1ccccc1C(Br)Br
- T/C (dose: 400.0 mg/kg/injection, schedule: Q01DX009 (ip), vehicle: gum acacia): 132 % of control

Structure (SMILES): CC1N=C(c2ccc(NC(=O)c3ccc(C(=O)Nc4ccc(C5=NC(C)C(C)N5)cc4)cc3)cc2)NC1C (stereo unspecified)
- T/C (dose: 1.5 mg/kg/injection, schedule: Q01DX Z (ip), vehicle: water): 142 % of control
- T/C (dose: 2.0 mg/kg/injection, schedule: Q01DX015 (ip), vehicle: water): 148 % of control
- T/C (dose: 3.0 mg/kg/injection, schedule: Q01DX Z (ip), vehicle: water): 144 % of control [5 of 6 alive]
- T/C (dose: 4.0 mg/kg/injection, schedule: Q01DX015 (ip), vehicle: water): 125 % of control
- survivor count (dose: 6.0 mg/kg/injection, schedule: Q01DX015 (ip), vehicle: water): 0 of 6
- survivor count (dose: 6.0 mg/kg/injection, schedule: Q01DX Z (ip), vehicle: water): 2 of 6
- survivor count (dose: 8.0 mg/kg/injection, schedule: Q01DX015 (ip), vehicle: water): 0 of 6

Structure (SMILES): CN(C)/N=C\c1ccccc1Cl
- survivor count (dose: 100.0 mg/kg/injection, schedule: Q01DX009 (ip), vehicle: saline with Tween-80): 6 of 6
- survivor count (dose: 200.0 mg/kg/injection, schedule: Q01DX009 (ip), vehicle: saline with Tween-80): 1 of 6
- survivor count [5]: 1 of 6

Structure (SMILES): CCN(c1ccccc1)c1ccc([N+](=O)[O-])c2no[n+]([O-])c12
- survivor count (dose: 80.0 mg/kg/injection, schedule: Q04DX003 (ip), vehicle: saline with Tween-80): 3 of 4

Structure (SMILES): NC(CSS(=O)(=O)O)=NCc1ccccc1
- survivor count (dose: 100.0 mg/kg/injection, schedule: Q04DX002 (ip), vehicle: Klucel (hydroxypropylcellulose) (HPC)): 0 of 3
- survivor count [6]: 0 of 3
- survivor count (dose: 400.0 mg/kg/injection, schedule: Q04DX002 (ip), vehicle: Klucel (hydroxypropylcellulose) (HPC)): 0 of 3

Structure (SMILES): COC(=O)C(Cc1ccccc1)NC(=O)C(C)NC(=O)OCc1ccccc1 (stereo unspecified)
- T/C [6]: 130 % of control

Structure (SMILES): CCSc1nc2ccccc2s1
- survivor count (dose: 400.0 mg/kg/injection, schedule: Q01DX001 (ip), vehicle: other): 0 of 3

Structure (SMILES): CCCCCCCC(=O)N1CCOCC1
- survivor count [3]: 6 of 6
- survivor count [4]: 0 of 6

Structure (SMILES): O=C(CCN1CC1)OC1CCCCCC1
- survivor count (dose: 50.0 mg/kg/injection, schedule: Q01DX009 (ip), vehicle: Klucel (hydroxypropylcellulose) (HPC)): 6 of 6
- survivor count [1]: 3 of 6
- survivor count [2]: 0 of 6
- survivor count (dose: 400.0 mg/kg/injection, schedule: Q04DX003 (ip), vehicle: Klucel (hydroxypropylcellulose) (HPC)): 4 of 6

Structure (SMILES): COc1ccc2nccc(C=O)c2c1
- survivor count (dose: 50.0 mg/kg/injection, schedule: Q01DX009 (ip), vehicle: saline with Tween-80): 2 of 6
- T/C [3]: 148 % of control

Structure (SMILES): CC1CN=C(Cc2ccc(NC(=O)c3ccc(C(=O)Nc4ccc(CC5=NCC(C)N5)cc4)cc3)cc2)N1 (stereo unspecified)
- survivor count (dose: 15.0 mg/kg/injection, schedule: Q01DX Z (ip), vehicle: water): 0 of 6
- survivor count (dose: 30.0 mg/kg/injection, schedule: Q01DX Z (ip), vehicle: water): 0 of 6

Structure (SMILES): CS(=O)(=O)OCCNc1ccc([N+](=O)[O-])cc1
- survivor count (dose: 128.0 mg/kg/injection, schedule: Q01DX015 (ip), vehicle: saline): 4 of 6
